Some of these results come from one statement about several compounds together.
System: brain aromatase
Test: PET studies in baboons (brain imaging)
Format: in vivo
Settings: at 2.5 min, baboon brain
Description: PET Studies in Baboons: All animal studies were reviewed and approved by the Brookhaven Institutional Animal Care and Use Committee. […] Baboons were anesthetized with ketamine (10 mg/kg) and then intubated and ventilated with a mixture of isoflurane (Forane, 1-4%) and nitrous oxide (1500 mL/min) and oxygen (800 mL/min). Animals were transported to and from the PET facility in a temperature controlled transfer cage and a member of the staff attended them while they recovered from anesthesia. Catheters were inserted in a popliteal artery and radial arm vein for arterial sampling a radiotracer injection respectively. Dynamic PET imaging was carried out on a Siemen's HR+ high resolution, whole body PET scanner (4.5×4.5×4.8 mm at center of field of view) in 3D acquisition mode, 63 planes. A transmission scan was obtained with a ^68Ge rotating rod source before the emission scan to correct for attenuation before each radiotracer injection. […] Dynamic scanning was carried out for 90 minutes with the following time frames (1×10 sec; 12×5 sec; 1×20 sec; 1×30 sec; 8×60 sec; 4×300 sec; 8×450 sec). […] During the PET scan, baboons were monitored for heart rate, respiration rate, PO2 and temperature. Animals were allowed 4 weeks between studies to recover from anesthesia and blood sampling.
Image Analysis: Time frames were summed over the 90 minute experimental period. […]

Question: With `[11CH3]n1nc2ccc(C(c3ccc(Cl)cc3)n3cncn3)cc2n1` (stereo not drawn) [N-2 isomer] as the compound, how does the brain penetration read?
Answer: The brain penetration was 0.02-0.03 % ID/cc.
